Data as given in PubChem BioAssay AID652272 (Drosophila RNAi Screening Center, 2013)

Screen: 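Genome-wide knock-down search for components of Hedgehog signalling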 (primary screen)
Cells: Drosophila clone 8 (Cl8) cells
Knock-down reagent: long dsRNA against Drosophila genes
Measurement: 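Plate reader light from a firefly reporter under a ptc promoter fragment that responds to Hedgehog, with Renilla light as transfection reference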
Scale: firefly Hh reporter signal: higher = more ptc reporter light; Renilla reference signal: higher = more Renilla control light
Active means: 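Called a hit if the two-replicate mean z-score lies below -2 or above +3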
Meaning of the calls: active = hit: reporter lowered or raised; inactive = not a hit
In all, the deposit lists about 21,000 reagents; shown is an unselected part of those that have a named target and a result. Of all reagents, 503 (2.4%) got an active call. 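Raw plate light values, not normalised; calls rest on replicate z-scores that were not deposited; hits include reporter decreases as well as increases.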 A number with no mark means an inactive call. The numbers tell different reagents against one gene apart. No sequences are given here. The record does not give: the amount of reagent, the time to read-out.

| firefly Hh reporter signal, replicate 1 | firefly Hh reporter signal, replicate 2 | firefly Hh reporter signal, replicate 3 | Renilla reference signal, replicate 1 | Renilla reference signal, replicate 2 | gene | reagent |
| --- | --- | --- | --- | --- | --- | --- |
| 1.32e5 | 3.31e5 | – | 3915 | 12161 | Nadk1b | 1 |
| 1.62e5 | 89050 | – | 6019 | 3686 | Nadk1b | 2 |
| 88528 | 49239 | – | 2128 | 4443 | Nadk1b | 3 |
| 4.86e5 | 1.11e5 | – | 26529 | 3579 | CG11786 | 1 |
| 83980 | – | – | 2120 | 2307 | CG6878 | 1 |
| 66641 | 2.86e5 | – | 1830 | 9885 | gd | 1 |
| 1.36e5 | 2.46e5 | – | 4016 | 11750 | Sfp38D | 1 |
| 55032 | 95544 | – | 2705 | 3888 | l(2)37Cb | 1 |
| 1.32e5 | 3.19e5 | – | 3320 | 14211 | tun | 1 |
| 1.20e5 | 1.04e5 | – | 5475 | 4917 | tun | 2 |
| 90210 | 72888 | – | 3803 | 2919 | CG1344 | 1 |
| 1.02e5 | 42809 | – | 2647 | 4325 | CG33301 | 1 |
| 93331 | 2.94e5 | – | 2485 | 10006 | CR4575 | 1 |
| 75056 | 42072 | – | 2160 | 3462 | Dh31-R | 1 |
| 81098 | 56644 | – | 2172 | 4338 | Dh31-R | 2 |
| 80748 | – | – | 4588 | 2192 | Mpcp2 | 1 |
| 2.02e5 | 1.58e5 | – | 4642 | 3749 | CG2246 | 1 |
| 83469 | 48088 | – | 2144 | 4582 | Ssl | 1 |
| 7.87e5 | 1.53e5 | – | 40716 | 4196 | CG4465 | 1 |
| 44933 (active) | 26981 | – | 3581 | 2672 | RpS9 | 1 |
| 96244 | 81510 | – | 3680 | 3288 | Sdr | 1 |
| 1.15e5 | 88984 | – | 2386 | 2160 | CG14352 | 1 |
| 86604 | 1.86e5 | – | 3428 | 8293 | awd | 1 |
| 7.16e5 | 1.54e5 | – | 37480 | 3093 | CG15922 | 1 |
| 61824 | 73489 | – | 1763 | 1744 | jub | 1 |
| 1.08e5 | 59981 | – | 4316 | 2496 | Aldh7A1 | 1 |
| 77658 | 27824 | – | 2008 | 2883 | Vps13 | 1 |
| 82572 | 1.46e5 | – | 2043 | 5082 | mwh | 1 |
| 77921 | 47267 | – | 3024 | 2611 | mwh | 2 |
| 6.09e5 | 1.59e5 | – | 31319 | 4523 | Trf4-2 | 1 |
| 1.09e5 | 86289 | – | 2944 | 6048 | CG14275 | 1 |
| 1.01e5 | 71500 | – | 4086 | 2640 | CG42675 | 1 |
| 5.28e5 | 87165 | – | 29911 | 2572 | snRNP-U1-C | 1 |
| 1.66e5 | 6.63e5 | 90007 | 4420 | 36154 | Obp56c | 1 |
| 76276 | 67488 | – | 2420 | 6108 | CG13144 | 1 |
| 67056 | 41920 | – | 1650 | 4313 | EMC5 | 1 |
| 1.18e5 | – | – | 7462 | 3857 | CG13059 | 1 |
| 88083 | 76464 | – | 3650 | 3049 | PGAP3 | 1 |
| 1.14e5 | 64267 | – | 5212 | 2660 | Srp72 | 1 |

The list goes on; the last 7 above are carried over.
| firefly Hh reporter signal, replicate 1 | firefly Hh reporter signal, replicate 2 | firefly Hh reporter signal, replicate 3 | Renilla reference signal, replicate 1 | Renilla reference signal, replicate 2 | gene | reagent |
| --- | --- | --- | --- | --- | --- | --- |
| 5.28e5 | 87165 | – | 29911 | 2572 | snRNP-U1-C | 1 |
| 1.66e5 | 6.63e5 | 90007 | 4420 | 36154 | Obp56c | 1 |
| 76276 | 67488 | – | 2420 | 6108 | CG13144 | 1 |
| 67056 | 41920 | – | 1650 | 4313 | EMC5 | 1 |
| 1.18e5 | – | – | 7462 | 3857 | CG13059 | 1 |
| 88083 | 76464 | – | 3650 | 3049 | PGAP3 | 1 |
| 1.14e5 | 64267 | – | 5212 | 2660 | Srp72 | 1 |
| 96121 | 3.53e5 | – | 2960 | 10602 | NdufA3 | 1 |
| 85176 | 1.66e5 | – | 1621 | 7286 | CG6978 | 1 |
| 95588 | 86528 | – | 2371 | 1960 | Send1 | 1 |
| 85744 | 57351 | – | 2392 | 5116 | ppk13 | 1 |
| 63190 | 2.00e5 | – | 1834 | 12139 | Rbm13 | 1 |
| 84949 | 44985 | – | 2321 | 3078 | CG8858 | 1 |
| 82608 | 1.75e5 | – | 2433 | 6443 | SmydA-9 | 1 |
| 60912 | 28304 | 36907 | 3696 | 3538 | klu | 1 |
| 1.07e5 | 57531 | – | 4816 | 3136 | Sps1 | 1 |
| 90373 | 39034 | – | 2887 | 1465 | Nprl3 | 1 |
| 91226 | 5.09e5 | 71274 | 2920 | 26381 | COX7C | 1 |
| 82854 | 1.33e5 | – | 3531 | 7324 | CG8136 | 1 |
| 1.14e5 | 80803 | – | 2660 | 6555 | MED16 | 1 |
| 58568 | 50486 | – | 2579 | 2329 | CG3735 | 1 |
| 2.43e5 | – | – | 5200 | – | Ac76E | 1 |
| 1.21e5 | 86295 | – | 4803 | 3639 | Ac76E | 2 |
| 73056 | 2.08e5 | – | 2346 | 8432 | Mpv17 | 1 |
| 59077 | 1.35e5 | – | 1625 | 6013 | CG11076 | 1 |
| 67645 | 48339 | – | 2843 | 1973 | CG3618 | 1 |
| 6.45e5 | 1.21e5 | – | 36855 | 3404 | EloB | 1 |
| 5.22e5 | 1.12e5 | – | 33713 | 3912 | LSm3 | 1 |
| 1.40e5 | – | – | 7456 | 4102 | bbg | 1 |
| 55778 | – | – | 3160 | 2019 | bbg | 2 |
| 92029 | 3.53e5 | – | 2196 | 13364 | lcs | 1 |
| 82045 | 96938 | – | 2022 | 3168 | CG14785 | 1 |
| 5.15e5 | 1.95e5 | – | 28704 | 3804 | vanin-like | 1 |
| 1.26e5 | 2.43e5 | – | 3949 | 11117 | CG34236 | 1 |
| 1.40e5 | 95414 | – | 5109 | 3635 | CG1092 | 1 |
| 73576 | 2.34e5 | – | 2016 | 8893 | CG15739 | 1 |
| 1.03e5 | 79270 | – | 3617 | 1872 | brv1 | 1 |
| 1.04e5 | 1.81e5 | – | 2642 | 8608 | Rrp47 | 1 |
| 69549 (active) | 5.33e5 | 71866 | 2678 | 3308 | mol | 1 |
| 91312 | 1.01e5 | – | 3981 | 3928 | mol | 2 |
| 1.41e5 | 91943 | – | 3913 | 8171 | mol | 3 |
